From PMC9501056 come the findings set out here.

Results are given in words; binding and its absence hold for the method and conditions named. In cells and extracts the contact can be indirect. Binding can be weak; no strength is given.

The target of assay [1] is T1, SSI (Oryza sativa subsp. indica cv. IR36 (endogenous in developing seeds)) (UniProt A2Y9M4).
T1 sequence: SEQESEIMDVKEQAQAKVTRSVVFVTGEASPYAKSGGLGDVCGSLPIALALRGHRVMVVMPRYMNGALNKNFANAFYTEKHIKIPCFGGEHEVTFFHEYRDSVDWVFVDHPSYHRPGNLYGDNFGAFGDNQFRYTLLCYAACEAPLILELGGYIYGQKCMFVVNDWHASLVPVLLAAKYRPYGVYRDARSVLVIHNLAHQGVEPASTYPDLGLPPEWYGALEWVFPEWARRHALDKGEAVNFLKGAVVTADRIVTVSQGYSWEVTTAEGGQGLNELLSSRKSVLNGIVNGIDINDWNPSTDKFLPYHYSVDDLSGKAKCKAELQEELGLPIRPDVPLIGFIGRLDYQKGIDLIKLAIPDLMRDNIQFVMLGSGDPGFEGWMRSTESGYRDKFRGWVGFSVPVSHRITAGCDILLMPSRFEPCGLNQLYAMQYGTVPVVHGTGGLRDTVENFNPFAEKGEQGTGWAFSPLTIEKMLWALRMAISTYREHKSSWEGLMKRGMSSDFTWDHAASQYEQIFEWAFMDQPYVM
Put plainly: co-IP; soluble proteins of developing seeds of the be2b mutant at 15 DAF incubated with isozyme-specific antibodies and protein A magnetic beads; washed with PBS pH 7.4; Western blotting. Background: A western blot detects proteins with antibodies after separation by electrophoresis.

Assay [2] deals with T2, SSIIa (Oryza sativa subsp. indica cv. IR36 (endogenous in developing seeds)) (UniProt P0C586).
T2 sequence: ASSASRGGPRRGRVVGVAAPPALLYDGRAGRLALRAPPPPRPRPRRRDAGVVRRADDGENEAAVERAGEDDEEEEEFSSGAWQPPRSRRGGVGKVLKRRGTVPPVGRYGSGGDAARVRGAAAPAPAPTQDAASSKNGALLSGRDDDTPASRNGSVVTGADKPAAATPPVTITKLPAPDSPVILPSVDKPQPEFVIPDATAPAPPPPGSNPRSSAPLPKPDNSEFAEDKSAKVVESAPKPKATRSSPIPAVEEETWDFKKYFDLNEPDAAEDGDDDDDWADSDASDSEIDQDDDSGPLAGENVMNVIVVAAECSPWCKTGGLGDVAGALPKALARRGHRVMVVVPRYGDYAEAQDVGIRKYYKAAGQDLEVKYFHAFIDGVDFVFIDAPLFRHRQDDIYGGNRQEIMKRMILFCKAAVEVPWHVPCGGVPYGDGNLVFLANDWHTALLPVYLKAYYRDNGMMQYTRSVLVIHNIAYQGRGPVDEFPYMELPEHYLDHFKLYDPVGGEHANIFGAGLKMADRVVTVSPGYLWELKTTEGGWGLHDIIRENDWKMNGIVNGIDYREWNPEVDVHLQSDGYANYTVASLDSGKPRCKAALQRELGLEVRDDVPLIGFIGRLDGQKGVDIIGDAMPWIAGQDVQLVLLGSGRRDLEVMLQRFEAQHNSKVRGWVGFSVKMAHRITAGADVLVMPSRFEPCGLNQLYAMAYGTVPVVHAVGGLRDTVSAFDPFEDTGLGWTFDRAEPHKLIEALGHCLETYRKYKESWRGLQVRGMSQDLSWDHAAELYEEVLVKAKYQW
The description is as above.

Assay [3] has as its target T3, BEI (Oryza sativa subsp. indica cv. IR36 (endogenous in developing seeds)) (UniProt Q01401).
T3 sequence: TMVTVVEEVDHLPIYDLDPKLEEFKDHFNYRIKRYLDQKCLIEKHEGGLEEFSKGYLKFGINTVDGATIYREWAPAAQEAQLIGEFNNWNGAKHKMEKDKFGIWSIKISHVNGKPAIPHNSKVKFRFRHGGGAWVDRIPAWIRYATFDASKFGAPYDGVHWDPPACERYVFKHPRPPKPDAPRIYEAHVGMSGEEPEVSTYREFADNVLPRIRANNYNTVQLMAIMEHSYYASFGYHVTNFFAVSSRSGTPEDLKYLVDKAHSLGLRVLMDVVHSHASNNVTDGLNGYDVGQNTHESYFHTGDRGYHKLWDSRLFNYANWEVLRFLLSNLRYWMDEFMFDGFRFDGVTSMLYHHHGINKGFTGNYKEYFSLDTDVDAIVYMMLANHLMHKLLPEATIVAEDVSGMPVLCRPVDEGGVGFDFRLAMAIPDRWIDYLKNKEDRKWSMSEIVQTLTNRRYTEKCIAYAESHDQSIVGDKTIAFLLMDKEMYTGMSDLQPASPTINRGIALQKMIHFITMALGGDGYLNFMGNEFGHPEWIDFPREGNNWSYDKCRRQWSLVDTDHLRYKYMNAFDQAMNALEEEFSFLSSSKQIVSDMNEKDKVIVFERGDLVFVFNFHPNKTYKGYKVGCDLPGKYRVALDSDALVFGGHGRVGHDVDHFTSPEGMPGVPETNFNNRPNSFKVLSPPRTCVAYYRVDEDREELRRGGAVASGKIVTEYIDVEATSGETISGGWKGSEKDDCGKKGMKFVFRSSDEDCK
The experiment in a line: co-IP; soluble proteins of developing seeds of WT (IR36) at 15 DAF incubated with isozyme-specific antibodies and protein A magnetic beads; washed with PBS pH 7.4; Western blotting.

The target in assay [4] is T1, SSI (Oryza sativa subsp. indica cv. IR36 (endogenous in developing seeds)). Described as above.
The target of assay [5] is T2, SSIIa (Oryza sativa subsp. indica cv. IR36 (endogenous in developing seeds)). The assay is described as above.
The target in assay [6] is T3, BEI (Oryza sativa subsp. indica cv. IR36 (endogenous in developing seeds)). The experiment in a line: co-IP; soluble proteins of developing seeds of WT (IR36) at 10 DAF incubated with isozyme-specific antibodies and protein A magnetic beads; washed with PBS pH 7.4; Western blotting.
Assay [7] has as its target T1, SSI (Oryza sativa subsp. indica cv. IR36 (endogenous in developing seeds)). The assay is described as above.
Assay [8] concerns the target T2, SSIIa (Oryza sativa subsp. indica cv. IR36 (endogenous in developing seeds)). Described as above.
The target of assay [9] is T3, BEI (Oryza sativa subsp. indica cv. IR36 (endogenous in developing seeds)). Put plainly: co-IP; soluble proteins of developing seeds of WT (IR36) at 5 DAF incubated with isozyme-specific antibodies and protein A magnetic beads; washed with PBS pH 7.4; Western blotting.
Assay [10] has as its target T1, SSI (Oryza sativa subsp. indica cv. IR36 (endogenous in developing seeds)). Described as above.
The target of assay [11] is T2, SSIIa (Oryza sativa subsp. indica cv. IR36 (endogenous in developing seeds)). The description is as above.

On to PUL (enzyme), for which the binding result is given as “binds” in assay [1]; “binds weakly” in assay [2]; “binds” in assay [3]; “binds” in assay [4]; “binds weakly” in assay [5]; “binds” in assay [6]. In addition, the binding entry in assay [7] is “binds”; in assay [8], “binds weakly”.
For BEIIb (enzyme), the binding result is “binds weakly” in assay [9]; “binds weakly” in assay [10]; “binds weakly” in [11]; “binds weakly” in [3]; “binds” in assay [4]; “binds” in assay [5]. The binding entry in [6], in assay [7] and in [8] was “binds” throughout.
